Results from patent US11236042B2, “Methylmenthol derivative and cool-sensation imparter composition containing same” (TAKASAGO INTERNATIONAL CORPORATION, priority 2017, dated 2022).

Test: Sensory evaluation of 30 ppm aqueous solution by three flavorists
Type: in vivo, human
Procedure: The sensory evaluation was performed by comparing the exemplary compound (1-1) with the so far known comparative compounds 1 to 4. Comparative compounds 1, 3, and 4 were synthesized according to the method described in WO 2016/153011 A1, and comparative compound 2 was synthesized according to the method described in WO 2005/020897 A1. The exemplary compound (1-1) and comparative compounds 1 to 4 were separately prepared into a 30 ppm aqueous solution, and the aqueous solution was used to perform the evaluation.
The evaluation was performed by three flavorists. The aqueous solution was taken into the mouth and spat out after the mouth was rinsed, and intensity, persistence, and quality of a cool-feeling in the oral cavity were evaluated.
A 30 ppm aqueous solution of the exemplary compound (1-2) was prepared and used to perform the evaluation.
A 30 ppm aqueous solution of the exemplary compound (1-3) was prepared and used to perform the evaluation.
A 30 ppm aqueous solution of the exemplary compound (1-5) was prepared and used to perform the evaluation.

Question: For `CC(C)C1CCC(C)(C)CC1C(=O)NCC(O)c1ccccc1` (stereo not shown) [Exemplary Compound 1-1, N-(2-hydroxy-2-phenylethyl)-2-isopropyl-5,5-dimethyl cyclohexane carboxamide], which “bitterness / miscellaneous tastes” value is on record?
Answer: Its value is “less than those of the comparative compounds 2 to 4”.

Question: And the “burning and tingling feelings” value?
Answer: The value was “weaker than those of the comparative compounds 1 to 4”.

Question: What about the “quality of the cool-feeling” value of the same compound?
Answer: The value was “sharper and richer than those produced by the comparative compounds 1 to 4”.

Question: For `CC(C)C1CCC(C)(C)CC1C(=O)NC[C@@H](O)c1ccccc1` (stereo partly drawn) [Exemplary Compound 1-2, N—((S)-2-hydroxy-2-phenylethyl)-2-isopropyl-5,5-dimethyl cyclohexane carboxamide], which “bitterness / miscellaneous tastes” value is on record?
Answer: The value was “not felt”.

Question: And the “burning and tingling feelings” value?
Answer: Its value is “not felt”.

Question: What about the “quality of the cool-feeling” value of the same compound?
Answer: Its value is “sharp and rich”.

Question: Which “bitterness / miscellaneous tastes” value does the source give for `CC(C)C1CCC(C)(C)CC1C(=O)NC[C@H](O)c1ccccc1` (stereo partly drawn) [Exemplary Compound 1-3, N—((R)-2-hydroxy-2-phenylethyl)-2-isopropyl-5,5-dimethyl cyclohexane carboxamide] here?
Answer: The value was “not felt”.

Question: What about the “burning and tingling feelings” value of the same compound?
Answer: The value was “not felt”.

Question: And the “quality of the cool-feeling” value?
Answer: The value was “sharp and rich”.

Question: For `CC(C)C1CCC(C)(C)CC1C(=O)NCC(=O)c1ccccc1` (stereo not shown) [Exemplary Compound 1-5, 2-isopropyl-5,5-dimethyl-N-(2-oxo-2-phenylethyl) cyclohexane carboxamide], which “burning and tingling feelings” value is on record?
Answer: The value was “hardly felt”.
